Data taken from the supplement of paper PMC7858590.
± gives the standard deviation of the averaged measurements. Whole data set: some 3,800 compounds, median “cell shape (eccentricity) Z-score vs DMSO control” near 1.1, cut for the lowest 2% near -4.7. Some of the results follow.

Tested on: human monocyte-derived macrophages (M0)
Assay: cell shape (eccentricity) Z-score vs DMSO control; higher = more elongated, M2-like morphology
Settings: 20 µM; 24 h; macrophage state: M0 (M-CSF)
Method: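 Primary human monocyte-derived macrophages (M-CSF differentiated, pooled from 4 donors, 5000 cells/well in 384-well plates) were treated with each compound at 20 uM for 24 h, then fixed and stained with phalloidin/DAPI and imaged on an Opera Phenix (6 fields, about 1000 cells/well). Cell eccentricity was measured with CellProfiler, and a Z-score (t-test) was computed against 4 DMSO control wells in the same row. Negative values mean round (M1-like) cells and positive values mean elongated (M2-like) cells; the paper's hit cutoffs are Z <= -4 (M1) and Z >= 6 (M2). Scale: negative = round, M1-like.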

Compared with `Cc1ccccc1C(=O)c1ccc(Nc2ccc(Br)cc2N)cc1Cl`, `COC(=O)c1ccccc1NC(=O)c1ccc(F)cc1` is higher in “cell shape (Z-score)” value: -0.179 for the first, 0.691 for the second.

Going from `O=C(O)Cc1csc(-c2ccc(Cl)cc2)n1` to `CC(C)(C)C(=O)C(Oc1ccc(Cl)cc1)n1ccnc1` (centres undefined), the “cell shape (Z-score)” value rises from -1.51 to 1.92.

Going from `COc1ccc(C(=O)c2ccccc2)c(O)c1` to `COc1ccc(/C=C/C(=O)Nc2ccccc2C(=O)O)cc1OC`, the “cell shape (Z-score)” value falls from 0.27 to 0.176.

Compared with `CC12CC(c3ccoc3)OC(=O)C1CCC1(C)C2C2OC(=O)C1(O)C1OC21` (centres undefined), `CC(=O)O[C@H]1C[C@@H](OC(C)=O)C(C)(C)C2C[C@@H](O)[C@]3(C)C(CC[C@@]4(C)[C@H](c5ccoc5)OC(=O)[C@H]5O[C@]543)[C@]21C` (some centres undefined) is lower in “cell shape (Z-score)” value: 2.8 for the first, 1.01 for the second.

First: CCN1CCCC1CNC(=O)c1cc(S(=O)(=O)CC)c(N)cc1OC (centres undefined)
Second: COc1cc(N)c(Cl)cc1C(=O)N[C@@H]1CCN(CCCOc2ccc(F)cc2)C[C@@H]1OC
The “cell shape (Z-score)” value of the first is lower: -0.27 for the first, 0.777 for the second.

Compared with `Clc1cccc2c1CN(C1=NCCN1)C2`, `CC(CN(C)C)CN1c2ccccc2CCc2ccccc21` (centres undefined) is higher in “cell shape (Z-score)” value: 0.256 for the first, 1.87 for the second.

Going from `COc1ncnc(NS(=O)(=O)c2ccc(N)cc2)c1OC` to `Cc1cc(NS(=O)(=O)c2ccc(N)cc2)no1`, the “cell shape (Z-score)” value falls from -0.361 to -8.11.

`NCCCCCCNS(=O)(=O)c1cccc2ccccc12` and `c1ccc(CNc2ncnc3ccccc23)cc1` are within error of each other in “cell shape (Z-score)” value: 3.27 for the first, 2.78 ± 0.59 for the second.

First: CC(C)(O)/C=C/C1=CC(O)C(C)(O)CC1O (centres undefined)
Second: C=CC(C)(O)CC/C=C(\C)CCC(O)C(C)(C)O (centres undefined)
The “cell shape (Z-score)” value of the first is lower: -0.696 for the first, 0.991 for the second.

Going from `CC1CCC2(C)C(C(=O)O)=CCCC2C1(C)CCC1=CC(O)OC1=O` (centres undefined) to `CC1CC(=O)[C@]2(C)CC[C@]3(C)C(C(=O)C(O)C4[C@@]5(C)CC[C@H](O)C(C)(C(=O)O)C5CC[C@]43C)C2C1C` (some centres undefined), the “cell shape (Z-score)” value rises from -0.873 to 2.52.

Going from `COc1c(O)cc2c(c1O)C(=O)OC(C)C2Oc1cc2c(c(O)c1OC)C(=O)OC(C)C2O` (centres undefined) to `COc1cc(O)c(OC)c2c1C(=O)CC(c1ccccc1)O2` (centres undefined), the “cell shape (Z-score)” value rises from -2.06 to 1.66.

Going from `N#CCNC(=O)c1ccc(-c2ccnc(Nc3ccc(N4CCOCC4)cc3)n2)cc1` to `CC(=O)N1CCN(c2ccc(OCC3CO[C@](Cn4ccnc4)(c4ccc(Cl)cc4Cl)O3)cc2)CC1` (some centres undefined), the “cell shape (Z-score)” value falls from 13.3 to 2.59.

First: CCc1ccccc1OC[C@@H](O)CN[C@H]1CCCc2ccccc21
Second: CC(C)[C@H]1c2ccc(F)cc2CC[C@@]1(CCN(C)CCCc1nc2ccccc2[nH]1)OC(=O)C1CC1
The “cell shape (Z-score)” value of the first is lower: 2.06 for the first, 4.07 for the second.

First: C=C1C[C@@]23CC[C@@H]4[C@](C)(CO)CCC[C@@]4(C)[C@@H]2CC[C@@H]1C3
Second: CC1(C)CC23C(=O)CCC(O)C2(C)CCC13 (centres undefined)
The “cell shape (Z-score)” value of the first is higher: 2.2 for the first, -0.321 for the second.

First: C[C@@H]1O[C@@H](O[C@H]2[C@@H]3C=CO[C@@H](O[C@@H]4O[C@H](CO)[C@@H](O)[C@H](O)[C@H]4O)[C@@H]3[C@@]3(CO)O[C@@H]23)[C@H](OC(=O)/C=C/c2ccccc2)[C@H](O)[C@H]1O
Second: COC(=O)C1=COC(O[C@@H]2O[C@H](CO)[C@@H](O)[C@H](O)[C@H]2O)[C@@H]2[C@@H](C)[C@@H](OC(=O)/C=C/c3ccc(O)c(O)c3)[C@@H](O)[C@H]12 (some centres undefined)
The “cell shape (Z-score)” value of the first is lower: -1.05 for the first, 2.16 for the second.

Going from `O=C(O)c1cccnc1Nc1cccc(C(F)(F)F)c1` to `Cc1c(Nc2ncccc2C(=O)O)cccc1C(F)(F)F`, the “cell shape (Z-score)” value falls from 2.97 to 2.7.

Going from `CC(C)(C)OC(=O)Nc1ccc(-c2cc(C(=O)NCCCCCCC(=O)NO)no2)cc1` to `CCCc1c(OCC(O)COc2ccc3c(=O)cc(C(=O)O)oc3c2CCC)ccc(C(C)=O)c1O` (centres undefined), the “cell shape (Z-score)” value falls from 5.77 to -4.47.

Going from `C[C@]12CCC3c4ccc(O)cc4CCC3C1CCC2=O` (some centres undefined) to `C[C@]12C[C@H](O)C3C(CC[C@@H]4C[C@H](O)CC[C@]34C)C1CC[C@@H]2C(=O)CO` (some centres undefined), the “cell shape (Z-score)” value falls from 4.84 to 0.401.

First: CCc1nn(CCCN2CCN(c3cccc(Cl)c3)CC2)c(=O)n1CCOc1ccccc1
Second: Cn1cc(C2=C(c3cn(CCCSC(=N)N)c4ccccc34)C(=O)NC2=O)c2ccccc21
The “cell shape (Z-score)” value of the first is lower: 2.38 for the first, 14.6 for the second.

Compared with `C[C@@H]1CC[C@]2(C(=O)O)CC[C@]3(C(=O)O)C(=CCC4[C@@]5(C)CC[C@H](O[C@@H]6O[C@@H](C)[C@H](O[C@@H]7O[C@H](CO)[C@@H](O)[C@H](O)[C@H]7O)[C@@H](O)[C@H]6O)C(C)(C)C5CC[C@]43C)C2[C@H]1C` (some centres undefined), `CC1OC(OC2C(OC3C(O[C@H]4CC[C@@]5(C)C(CC[C@]6(C)C5CC=C5C7CC(C)(C)CC(O)[C@]7(C)CC[C@]56C)C4(C)C)OC(C(=O)O)C(O)C3O)OCC(O)C2O)C(O)C(O)C1O` (some centres undefined) is higher in “cell shape (Z-score)” value: -0.0356 for the first, 1.53 for the second.

Compared with `O=C(O)c1cc(O)c2cccc(O)c2n1`, `O=C1c2c(O)cc(O)cc2O[C@H](c2ccccc2)[C@H]1O` is higher in “cell shape (Z-score)” value: 0.344 for the first, 2.84 for the second.

Going from `CCN(CC)C(=S)SSC(=S)N(CC)CC` to `C=CC(C)(O)CC(/C=C(\C)CC(/C=C(\C)CCC=C(C)C)OC(C)=O)OC(C)=O` (centres undefined), the “cell shape (Z-score)” value falls from 6.44 to -0.322.

First: COc1ccc(OC)c(C(O)CNC(=O)CN)c1 (centres undefined)
Second: COc1cc(CCC(O)CC(O)CCc2ccc(O)c(OC)c2)ccc1O (centres undefined)
The “cell shape (Z-score)” value of the first is higher: 2.16 for the first, 1.81 for the second.

Going from `NC(=O)N/N=C/c1ccc([N+](=O)[O-])o1` to `CC(C)n1nnc2cc(C(=O)O)ccc21`, the “cell shape (Z-score)” value rises from -0.778 to 3.96.

Compared with `O=C(/C=C/c1ccc(O)cc1)NCCc1ccc(O)cc1`, `COc1cc(O[C@@H]2O[C@H](CO)[C@@H](O)[C@H](O)[C@H]2O)cc2occ(-c3ccc(O)cc3)c(=O)c12` is lower in “cell shape (Z-score)” value: 2.93 for the first, 1.17 for the second.

First: CS(=O)c1ccc(-c2nc(-c3ccc(F)cc3)c(-c3ccncc3)[nH]2)cc1 (centres undefined)
Second: CN1CCN(CCOc2cc(OC3CCOCC3)c3c(Nc4c(Cl)ccc5c4OCO5)ncnc3c2)CC1
The “cell shape (Z-score)” value of the first is lower: 3.26 for the first, 5.59 for the second.

Going from `C[C@@H]1CC[C@H]2[C@@H](C)C(O)O[C@@H]3O[C@]4(C)CC[C@@H]1[C@]32OO4` (some centres undefined) to `O=C1OC(=O)C2C3CCC(O3)C12` (centres undefined), the “cell shape (Z-score)” value rises from 2.48 to 3.71.

Compared with `S=c1ccss1`, `CCOC(=O)n1ccn(C)c1=S` is lower in “cell shape (Z-score)” value: 3.29 for the first, 1.35 for the second.

Compared with `COc1ccc(-c2cc(=O)c3c(O)cc(O[C@@H]4O[C@@H](CO[C@@H]5O[C@H](C)[C@@H](O)[C@H](O)[C@H]5O)[C@H](O)[C@@H](O)[C@H]4O)cc3o2)cc1O`, `Cc1c(NC(C)C)c(=O)n(-c2ccccc2)n1C` is higher in “cell shape (Z-score)” value: -0.595 for the first, 0.0308 for the second.

`O=C(CCCCCC/C=C/c1ccc2c(c1)OCO2)N1CCCCC1` was tested, and the “cell shape (Z-score)” value was 2.57.
